According to the supplement of paper PMC10331698:
± gives the standard deviation of the averaged measurements. Small differences around the control level are noise.

Legend:
Assay in all cases: level (log10 ratio to DMSO vehicle control); higher = higher biomarker level / cell amount than vehicle control
[1] = compound: O=C(O)C(F)(F)OC(F)(F)C(F)(F)OC(F)(F)C(F)(F)C(F)(F)C(F)(F)F [Perfluoro-3,6-dioxadecanoic acid]; settings: 2200 nM; in DMSO
Protocol: (§1)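 BioMAP Diversity Plus panel of 12 human primary cell co-culture systems (3C, 4H, LPS, SAg, BT, BF4T, BE3C, CASM3C, HDF3CGF, KF3CT, MyoF, Mphg). Compounds were added 1 h before stimulation and left for 24 h (MyoF 48 h; BT 72 h for soluble read-outs or 6 d for IgG). Biomarkers were read by ELISA, cytotoxicity by SRB, PBMC viability and proliferation by Alamar Blue. Each well value was divided by the mean of 8 DMSO control wells on the same plate and log10 transformed; duplicate blinded samples were tested at 4 concentrations.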

[2] = compound: O=C(O)C(F)(F)C(F)(F)OC(F)(F)F [Perfluoro-3-methoxypropanoic acid]; settings: 2200 nM; in DMSO
Protocol: as §1

[3] = compound: O=C(O)C(F)(F)C(F)(F)C(F)(F)C(F)(F)C(F)(F)C(F)(F)C(F)(F)C(F)F [9-H-Perfluorononanoic acid]; settings: 2200 nM; in DMSO
Protocol: as §1

[4] = compound: O=C(O)C=CC(F)(C(F)(F)F)C(F)(F)F [3-(Perfluoroisopropyl)-2-propenoic acid]; settings: in DMSO
Protocol: as §1

[5] = compound: OCCC(F)(F)C(F)(F)C(F)(F)C(F)(F)C(F)(F)C(F)(F)C(F)(F)C(F)(F)F [8:2 Fluorotelomer alcohol]; settings: 2200 nM; in DMSO
Protocol: as §1

[6] = compound: FC(F)C(F)(F)COCC1CO1 [((2,2,3,3-Tetrafluoropropoxy)methyl)oxirane]; settings: 2200 nM; in DMSO
Protocol: as §1

[7] = compound: C=CC(=O)OCC(F)(F)C(F)(F)C(F)(F)C(F)(F)COC(=O)C=C [1H,1H,6H,6H-Perfluorohexane-1,6-diol diacrylate]; settings: 2200 nM; in DMSO
Protocol: as §1

[8] = compound: O=C(O)C(F)(F)OC(F)(F)C(F)(F)OC(F)(F)C(=O)O [Perfluoro-3,6-dioxaoctane-1,8-dioic acid]; settings: 2200 nM; in DMSO
Protocol: as §1

[9] = compound: C=C(C)C(=O)OCC(F)(F)C(F)(F)C(F)(F)F [2,2,3,3,4,4,4-Heptafluorobutyl methacrylate]; settings: 2200 nM; in DMSO
Protocol: as §1

[10] = compound: NC(=O)C(F)(F)C(F)(F)C(F)(F)C(F)(F)C(F)(F)C(F)(F)C(F)(F)F [Perfluorooctanamide]; settings: 2200 nM; in DMSO
Protocol: as §1

[11] = compound: FC(F)(F)C(F)(F)C(F)(F)C(F)(F)C(F)(F)C(F)(F)C(F)(F)CCI [1-Iodo-1H,1H,2H,2H-perfluorononane]; settings: in DMSO
Protocol: as §1

[12] = compound: O=S(=O)(Cl)C(F)(F)C(F)(F)C(F)(F)C(F)(F)C(F)(F)C(F)(F)C(F)(F)C(F)(F)F [Perfluoro-1-octanesulfonyl chloride]; settings: 2200 nM; in DMSO
Protocol: as §1

[13] = compound: O=C(O)C(F)(F)C(F)(F)F [Perfluoropropanoic acid]; settings: 2200 nM; in DMSO
Protocol: as §1

[14] = compound: O=P(O)(O)CCC(F)(F)C(F)(F)C(F)(F)C(F)(F)C(F)(F)C(F)(F)C(F)(F)C(F)(F)F [((Perfluorooctyl)ethyl)phosphonic acid]; settings: 2200 nM; in DMSO
Protocol: as §1

[15] = compound: O=C(O)C(F)(F)C(F)(F)C(F)(F)F [Perfluorobutanoic acid]; settings: 2200 nM; in DMSO
Protocol: as §1

[16] = compound: OCC(F)(F)C(F)(F)C(F)(F)C(F)(F)C(F)(F)C(F)(F)C(F)(F)C(F)(F)C(F)(F)C(F)(F)C(F)(F)F [11:1 Fluorotelomer alcohol]; settings: in DMSO
Protocol: as §1

[17] = compound: FC(F)(F)C(F)(F)C(F)(F)C(F)(F)C(F)(F)C(F)(F)C(F)(F)I [1-Iodopentadecafluoroheptane]; settings: in DMSO
Protocol: as §1

[18] = compound: O=C(O)C(F)(F)C(F)(F)C(F)(F)C(F)(F)C(F)(F)C(F)(F)C(F)(F)C(F)(F)C(F)(F)C(F)(F)F [Perfluoroundecanoic acid]; settings: in DMSO
Protocol: as §1

Row | Test System | level (log10) [1] | level (log10) [2] | level (log10) [3] | level (log10) ([4]; 2200 nM) | level (log10) ([4]; 6700 nM) | level (log10) ([4]; 20000 nM) | level (log10) ([4]; 60000 nM) | level (log10) [5] | level (log10) [6] | level (log10) [7] | level (log10) [8] | level (log10) [9] | level (log10) [10] | level (log10) ([11]; 740 nM) | level (log10) ([11]; 2200 nM) | level (log10) ([11]; 6700 nM) | level (log10) ([11]; 20000 nM) | level (log10) [12] | level (log10) [13] | level (log10) [14] | level (log10) [15] | level (log10) ([16]; 370 nM) | level (log10) ([16]; 1100 nM) | level (log10) ([16]; 3300 nM) | level (log10) ([16]; 10000 nM) | level (log10) ([17]; 740 nM) | level (log10) ([17]; 2200 nM) | level (log10) ([17]; 6700 nM) | level (log10) ([17]; 20000 nM) | level (log10) ([18]; 740 nM) | level (log10) ([18]; 2200 nM)
1 | BF4T:CCL2/MCP-1 | -0.103 ± 0.083 | 0.0395 ± 0.054 | -0.091 ± 0.041 | 0.034 ± 0.035 | 0.0045 ± 0.023 | 0.003 ± 0.013 | 0.0505 ± 0.076 | -0.005 ± 0.054 | 0.033 ± 0.062 | -0.009 ± 0.0071 | 0.0355 ± 0.019 | -0.0135 ± 0.044 | 0.016 ± 0.034 | 0.0235 ± 0.012 | -0.007 ± 0.014 | -0.0135 ± 0.015 | -0.0245 ± 0.066 | 0.0085 ± 0.028 | 0.0015 ± 0.025 | 0.044 ± 0.069 | 0.0205 ± 0.042 | 0.0125 ± 0.0078 | 0.018 ± 0.042 | 0.0235 ± 0.021 | 0.031 ± 0.023 | 0.0155 ± 0.026 | -0.0005 ± 0.0078 | -0.0105 ± 0.0092 | 0.011 ± 0.02 | -0.002 ± 0.041 | 0.0085 ± 0.03
2 | BF4T:CCL26/Eotaxin-3 | -0.012 ± 0.072 | -0.0235 ± 0.067 | -0.022 ± 0.034 | 0.0335 ± 0.098 | -0.0085 ± 0.057 | -0.005 ± 0.013 | 0.0165 ± 0.029 | -0.009 ± 0.12 | 0.046 ± 0.024 | -0.003 ± 0.023 | -0.0255 ± 0.0092 | 0.034 ± 0.075 | -0.056 ± 0.16 | 0.0315 ± 0.011 | 0.026 ± 0.0071 | -0.0075 ± 0.0021 | -0.061 ± 0.0099 | -0.027 ± 0.041 | 0.0225 ± 0.019 | 0.0195 ± 0.081 | 0.0115 ± 0.052 | 0.011 ± 0.013 | -0.012 ± 0.0042 | -0.003 ± 0.011 | -0.0015 ± 0.0078 | 0.025 ± 0.033 | -0.0135 ± 0.018 | -0.04 ± 0.048 | -0.0305 ± 0.042 | -0.092 ± 0.031 | -0.127 ± 0.021
3 | BF4T:CD54/ICAM-1 | -0.0055 ± 0.023 | 0.007 ± 0.025 | -0.0225 ± 0.0021 | 0.017 ± 0.014 | 0.007 ± 0.0042 | -0.0005 ± 0.025 | 0.011 ± 0.0028 | -0.0045 ± 0.028 | 0.0055 ± 0.018 | -0.0195 ± 0.021 | 0.013 ± 0.011 | 0.005 ± 0.024 | -0.0175 ± 0.011 | -0.003 ± 0.028 | -0.0095 ± 0.0092 | -0.007 ± 0.018 | -0.0345 ± 0.0064 | -0.009 ± 0.016 | 0.016 ± 0.02 | 0.009 ± 0.025 | 0.0085 ± 0.025 | 0.011 ± 0.0057 | -0.0125 ± 0.005 | -0.015 ± 0.018 | -0.0015 ± 0.00071 | 0.007 ± 0.0014 | -0.016 ± 0.0099 | 0.004 ± 0.011 | -0.0025 ± 0.013 | 0.003 ± 0.017 | -0.001 ± 0.014
